Consider 40 targets from the supplement of paper PMC7666118.

The chains behind the UniProt entries cited, without tags or fusion partners. Where a name states a change or a piece, a line headed by the entry shows the natural chain unless it says otherwise.
UniProt P16152: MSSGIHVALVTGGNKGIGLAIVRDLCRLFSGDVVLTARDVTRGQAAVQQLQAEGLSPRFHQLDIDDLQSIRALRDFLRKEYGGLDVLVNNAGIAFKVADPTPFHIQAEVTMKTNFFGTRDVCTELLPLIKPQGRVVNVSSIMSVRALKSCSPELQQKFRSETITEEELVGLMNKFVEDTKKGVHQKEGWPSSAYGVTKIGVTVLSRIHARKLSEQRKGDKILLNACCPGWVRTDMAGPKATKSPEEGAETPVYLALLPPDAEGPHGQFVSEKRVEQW
UniProt Q96CS2: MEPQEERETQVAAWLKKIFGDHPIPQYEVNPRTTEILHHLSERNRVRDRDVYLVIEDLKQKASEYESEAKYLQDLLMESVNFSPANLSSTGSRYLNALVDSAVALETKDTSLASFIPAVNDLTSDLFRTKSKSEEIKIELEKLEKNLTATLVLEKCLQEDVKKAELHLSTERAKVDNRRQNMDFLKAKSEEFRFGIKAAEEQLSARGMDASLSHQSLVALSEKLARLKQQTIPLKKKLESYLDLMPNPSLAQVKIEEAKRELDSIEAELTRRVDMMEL
UniProt Q6ZSJ8: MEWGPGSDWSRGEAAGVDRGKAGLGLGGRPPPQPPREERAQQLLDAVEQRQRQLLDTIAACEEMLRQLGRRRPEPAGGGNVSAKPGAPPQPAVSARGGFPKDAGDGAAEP
UniProt Q96GE9: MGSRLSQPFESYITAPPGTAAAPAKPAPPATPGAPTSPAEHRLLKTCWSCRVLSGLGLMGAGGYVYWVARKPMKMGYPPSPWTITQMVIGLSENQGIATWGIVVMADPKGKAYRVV
UniProt P16070: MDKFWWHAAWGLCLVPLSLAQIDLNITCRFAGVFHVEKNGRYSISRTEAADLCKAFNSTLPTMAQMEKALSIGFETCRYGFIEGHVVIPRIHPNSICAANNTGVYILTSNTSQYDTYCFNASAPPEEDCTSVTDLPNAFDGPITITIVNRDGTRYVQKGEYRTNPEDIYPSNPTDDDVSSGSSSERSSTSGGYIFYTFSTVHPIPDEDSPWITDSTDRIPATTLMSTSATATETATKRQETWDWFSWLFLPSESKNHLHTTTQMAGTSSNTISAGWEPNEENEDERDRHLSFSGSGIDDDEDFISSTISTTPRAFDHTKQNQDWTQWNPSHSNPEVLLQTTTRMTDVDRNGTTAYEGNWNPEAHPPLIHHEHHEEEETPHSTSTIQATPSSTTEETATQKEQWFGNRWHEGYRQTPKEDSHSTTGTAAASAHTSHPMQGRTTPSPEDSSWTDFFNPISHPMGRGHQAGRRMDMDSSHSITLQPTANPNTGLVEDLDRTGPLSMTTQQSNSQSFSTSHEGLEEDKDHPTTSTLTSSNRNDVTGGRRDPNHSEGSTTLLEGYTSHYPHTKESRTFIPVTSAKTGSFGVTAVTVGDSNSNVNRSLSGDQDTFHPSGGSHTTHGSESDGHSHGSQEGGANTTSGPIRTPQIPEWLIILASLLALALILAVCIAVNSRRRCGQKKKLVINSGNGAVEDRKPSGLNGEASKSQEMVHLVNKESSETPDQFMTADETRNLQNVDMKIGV
UniProt Q96RR4, whole entry, looked up: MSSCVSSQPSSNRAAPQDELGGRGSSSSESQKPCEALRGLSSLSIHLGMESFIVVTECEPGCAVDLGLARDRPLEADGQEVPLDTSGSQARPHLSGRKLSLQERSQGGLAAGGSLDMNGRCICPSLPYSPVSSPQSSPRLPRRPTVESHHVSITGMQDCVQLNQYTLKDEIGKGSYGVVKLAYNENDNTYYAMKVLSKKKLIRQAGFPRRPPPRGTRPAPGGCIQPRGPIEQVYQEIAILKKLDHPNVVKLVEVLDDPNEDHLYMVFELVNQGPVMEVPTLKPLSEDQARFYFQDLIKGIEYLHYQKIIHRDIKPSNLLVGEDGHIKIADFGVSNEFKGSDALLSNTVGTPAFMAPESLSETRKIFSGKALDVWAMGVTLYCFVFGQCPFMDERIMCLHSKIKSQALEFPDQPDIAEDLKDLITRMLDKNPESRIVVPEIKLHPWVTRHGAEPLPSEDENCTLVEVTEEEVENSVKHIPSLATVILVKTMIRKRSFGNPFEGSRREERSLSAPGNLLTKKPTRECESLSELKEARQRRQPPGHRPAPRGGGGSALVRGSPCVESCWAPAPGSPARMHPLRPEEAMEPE
UniProt Q8NBI6: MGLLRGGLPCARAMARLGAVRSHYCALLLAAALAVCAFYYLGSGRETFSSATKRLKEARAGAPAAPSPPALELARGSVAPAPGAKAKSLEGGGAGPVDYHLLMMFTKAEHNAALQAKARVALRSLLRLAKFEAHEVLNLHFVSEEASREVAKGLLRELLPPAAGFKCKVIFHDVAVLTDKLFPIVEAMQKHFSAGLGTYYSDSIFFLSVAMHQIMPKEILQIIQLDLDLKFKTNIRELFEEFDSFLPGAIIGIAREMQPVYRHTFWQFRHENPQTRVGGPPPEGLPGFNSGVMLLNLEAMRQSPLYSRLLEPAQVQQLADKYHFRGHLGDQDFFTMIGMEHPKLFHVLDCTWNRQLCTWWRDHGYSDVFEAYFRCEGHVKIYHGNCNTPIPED
UniProt Q9BUH6, whole entry: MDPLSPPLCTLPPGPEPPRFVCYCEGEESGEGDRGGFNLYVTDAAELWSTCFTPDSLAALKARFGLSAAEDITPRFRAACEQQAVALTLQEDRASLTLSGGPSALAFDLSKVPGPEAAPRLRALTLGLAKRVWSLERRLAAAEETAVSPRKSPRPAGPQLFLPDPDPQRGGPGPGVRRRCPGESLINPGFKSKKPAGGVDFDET
UniProt Q9P0B6: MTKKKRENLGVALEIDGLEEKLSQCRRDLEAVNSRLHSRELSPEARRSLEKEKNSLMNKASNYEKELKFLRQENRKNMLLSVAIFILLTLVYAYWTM
UniProt Q3KRA6: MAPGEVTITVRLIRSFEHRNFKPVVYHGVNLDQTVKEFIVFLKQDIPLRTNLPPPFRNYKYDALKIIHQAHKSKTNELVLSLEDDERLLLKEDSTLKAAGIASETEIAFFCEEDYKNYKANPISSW
UniProt A6NC98: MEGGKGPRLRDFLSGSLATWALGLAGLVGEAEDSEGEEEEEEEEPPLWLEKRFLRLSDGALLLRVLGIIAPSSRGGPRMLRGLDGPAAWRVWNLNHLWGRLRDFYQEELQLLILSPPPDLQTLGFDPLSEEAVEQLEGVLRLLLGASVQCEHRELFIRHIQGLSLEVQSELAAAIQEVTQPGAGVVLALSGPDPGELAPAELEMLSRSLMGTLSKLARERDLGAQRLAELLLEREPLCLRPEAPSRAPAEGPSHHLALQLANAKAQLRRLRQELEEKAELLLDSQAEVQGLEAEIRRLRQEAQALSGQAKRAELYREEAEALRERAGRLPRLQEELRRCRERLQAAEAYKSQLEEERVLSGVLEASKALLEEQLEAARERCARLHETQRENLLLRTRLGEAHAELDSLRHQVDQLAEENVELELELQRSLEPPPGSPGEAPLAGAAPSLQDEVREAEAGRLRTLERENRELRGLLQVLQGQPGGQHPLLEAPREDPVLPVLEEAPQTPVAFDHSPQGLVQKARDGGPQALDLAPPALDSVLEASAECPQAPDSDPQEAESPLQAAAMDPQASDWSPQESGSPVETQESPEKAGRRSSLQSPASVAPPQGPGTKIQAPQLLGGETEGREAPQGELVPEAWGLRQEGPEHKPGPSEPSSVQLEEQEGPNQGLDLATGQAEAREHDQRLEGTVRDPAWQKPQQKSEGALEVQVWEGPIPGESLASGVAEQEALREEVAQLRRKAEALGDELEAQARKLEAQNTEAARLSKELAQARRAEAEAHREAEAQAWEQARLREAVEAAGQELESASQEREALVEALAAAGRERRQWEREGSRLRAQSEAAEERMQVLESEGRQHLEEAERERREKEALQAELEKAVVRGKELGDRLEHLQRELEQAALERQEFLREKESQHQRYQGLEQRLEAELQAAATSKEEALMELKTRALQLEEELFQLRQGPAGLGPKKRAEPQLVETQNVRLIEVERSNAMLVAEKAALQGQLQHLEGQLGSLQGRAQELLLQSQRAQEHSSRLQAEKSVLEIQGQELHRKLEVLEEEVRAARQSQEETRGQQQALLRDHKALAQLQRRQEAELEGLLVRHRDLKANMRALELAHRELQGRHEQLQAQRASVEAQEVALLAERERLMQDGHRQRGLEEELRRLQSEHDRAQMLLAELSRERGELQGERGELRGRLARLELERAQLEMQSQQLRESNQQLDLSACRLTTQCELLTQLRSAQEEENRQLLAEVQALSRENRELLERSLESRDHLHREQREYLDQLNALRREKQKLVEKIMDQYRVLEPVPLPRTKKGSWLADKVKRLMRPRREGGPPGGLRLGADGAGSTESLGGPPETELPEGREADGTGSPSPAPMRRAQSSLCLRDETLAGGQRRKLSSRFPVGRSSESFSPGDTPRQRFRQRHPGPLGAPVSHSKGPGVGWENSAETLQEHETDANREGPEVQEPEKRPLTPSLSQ
UniProt Q4VC31: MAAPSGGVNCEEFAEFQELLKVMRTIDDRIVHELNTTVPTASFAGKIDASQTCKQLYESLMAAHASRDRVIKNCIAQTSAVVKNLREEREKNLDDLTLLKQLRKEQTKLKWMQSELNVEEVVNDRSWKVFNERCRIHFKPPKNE
UniProt P01024, whole entry: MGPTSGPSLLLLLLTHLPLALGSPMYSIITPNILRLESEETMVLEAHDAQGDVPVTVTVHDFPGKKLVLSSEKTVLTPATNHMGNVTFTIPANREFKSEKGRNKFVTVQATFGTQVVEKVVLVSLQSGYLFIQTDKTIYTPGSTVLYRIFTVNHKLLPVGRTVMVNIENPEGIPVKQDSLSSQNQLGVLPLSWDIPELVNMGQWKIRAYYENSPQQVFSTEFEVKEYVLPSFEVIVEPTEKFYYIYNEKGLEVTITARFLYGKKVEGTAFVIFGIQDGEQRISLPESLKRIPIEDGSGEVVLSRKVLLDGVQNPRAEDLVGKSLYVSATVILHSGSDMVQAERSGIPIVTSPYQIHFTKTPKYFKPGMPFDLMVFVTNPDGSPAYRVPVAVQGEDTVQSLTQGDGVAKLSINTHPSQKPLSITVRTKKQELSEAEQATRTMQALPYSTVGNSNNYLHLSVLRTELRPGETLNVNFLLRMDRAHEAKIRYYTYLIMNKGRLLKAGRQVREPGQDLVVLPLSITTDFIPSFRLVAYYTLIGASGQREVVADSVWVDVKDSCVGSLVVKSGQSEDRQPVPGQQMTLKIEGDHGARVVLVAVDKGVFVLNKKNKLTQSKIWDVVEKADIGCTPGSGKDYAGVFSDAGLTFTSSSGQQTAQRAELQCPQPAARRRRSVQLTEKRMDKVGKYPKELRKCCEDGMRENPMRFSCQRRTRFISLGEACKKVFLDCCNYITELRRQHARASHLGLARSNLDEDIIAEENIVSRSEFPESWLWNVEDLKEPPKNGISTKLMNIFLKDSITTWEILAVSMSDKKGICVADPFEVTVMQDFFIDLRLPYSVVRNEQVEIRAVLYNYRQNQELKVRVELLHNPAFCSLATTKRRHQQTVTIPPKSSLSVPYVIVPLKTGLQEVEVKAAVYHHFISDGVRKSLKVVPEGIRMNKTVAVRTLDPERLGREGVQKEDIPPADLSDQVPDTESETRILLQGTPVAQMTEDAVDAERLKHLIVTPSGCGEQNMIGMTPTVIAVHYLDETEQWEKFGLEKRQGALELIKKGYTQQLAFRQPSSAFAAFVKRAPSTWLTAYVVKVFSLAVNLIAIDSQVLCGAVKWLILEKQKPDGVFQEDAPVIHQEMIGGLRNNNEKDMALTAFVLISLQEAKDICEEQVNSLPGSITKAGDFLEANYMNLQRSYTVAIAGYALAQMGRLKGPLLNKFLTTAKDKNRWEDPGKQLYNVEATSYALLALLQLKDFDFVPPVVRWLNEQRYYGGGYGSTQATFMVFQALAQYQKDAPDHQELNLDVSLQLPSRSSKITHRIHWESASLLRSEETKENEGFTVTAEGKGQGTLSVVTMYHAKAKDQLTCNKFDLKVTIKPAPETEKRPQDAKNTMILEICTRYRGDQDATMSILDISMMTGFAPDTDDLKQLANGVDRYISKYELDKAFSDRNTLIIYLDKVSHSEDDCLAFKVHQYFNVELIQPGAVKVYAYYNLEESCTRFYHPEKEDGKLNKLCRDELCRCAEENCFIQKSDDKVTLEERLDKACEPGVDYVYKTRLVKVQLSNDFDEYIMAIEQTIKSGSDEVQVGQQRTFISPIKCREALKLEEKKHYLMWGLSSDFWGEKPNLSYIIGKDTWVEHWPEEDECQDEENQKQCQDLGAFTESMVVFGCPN
UniProt P49662: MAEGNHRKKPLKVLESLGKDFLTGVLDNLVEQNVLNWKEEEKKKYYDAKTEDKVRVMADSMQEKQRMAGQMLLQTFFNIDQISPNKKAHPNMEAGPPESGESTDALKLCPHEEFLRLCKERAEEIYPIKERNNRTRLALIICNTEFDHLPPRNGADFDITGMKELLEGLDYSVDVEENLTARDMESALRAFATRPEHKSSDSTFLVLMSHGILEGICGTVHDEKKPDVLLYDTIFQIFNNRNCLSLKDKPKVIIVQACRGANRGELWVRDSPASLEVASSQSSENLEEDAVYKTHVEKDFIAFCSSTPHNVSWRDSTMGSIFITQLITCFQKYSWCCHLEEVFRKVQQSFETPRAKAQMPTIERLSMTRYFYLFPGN

The list shows a part of the results.

Compound in the experiment: COc1ccc(Cn2ccc3cc(C)c(C(=O)NO)cc32)cc1
Kind of experiment: dose-dependent thermal stabilisation call (2D-TPP, DLPTP, 10% FDR) (binary (1 = stabilised)); higher = stabilised by the compound. The conditions noted are these: system: HL-60 intact cells; concentration range 0.04-10 µM. How it is done:
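2D thermal proteome profiling in intact HL-60 cells treated with BRD-3811 (0, 0.04, 0.29, 2, 10 uM) for 90 min at 37 C, then heated 3 min at one of 12 temperatures (42-63.9 C). Soluble protein was quantified by TMT10 MS. The value is the DLPTP call of the paper: dose-dependent thermal stabilisation over all temperatures at 10% FDR (F-test of a dose-response against a flat model); one experiment, one call per tested protein.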
On to CCT6B (UniProt Q92526), for which the “dose-dependent thermal stabilisation call” value was inactive: 0.
As for CARS2 (UniProt Q9HA77), the figure is inactive: 0; as for CBR1 (UniProt P16152), inactive: 0.
As for CCDC5 (UniProt Q96CS2), the figure is inactive: 0; as for CD2AP (UniProt Q9Y5K6), inactive: 0; as for C1ORF122 (UniProt Q6ZSJ8), inactive: 0.
As for C20ORF74 (UniProt Q2PPJ7), the figure is inactive: 0; as for CAP1 (UniProt Q01518), inactive: 0.
Take C9ORF123 (UniProt Q96GE9): the “dose-dependent thermal stabilisation call” value is inactive: 0.
As for C1ORF77 (UniProt Q9Y3Y2), the figure is inactive: 0.
With C6ORF72 (UniProt Q9NU53) the figure was inactive: 0; with CASK (UniProt O14936), inactive: 0; with C3ORF58 (UniProt Q8NDZ4), inactive: 0.
As for C6ORF211 (UniProt Q9H993), the figure is inactive: 0; as for CD44 (UniProt P16070), inactive: 0; as for CAMKK2 (UniProt Q96RR4), inactive: 0.
As for C3ORF21 (UniProt Q8NBI6), the “dose-dependent thermal stabilisation call” value was inactive: 0.
For C2ORF30 (UniProt Q96DZ1), the “dose-dependent thermal stabilisation call” value was inactive: 0.
In the case of CCT3 (UniProt P49368), the “dose-dependent thermal stabilisation call” value is inactive: 0.
On to C2ORF15 (UniProt Q8WU43), for which the “dose-dependent thermal stabilisation call” value was inactive: 0.
As to C9ORF142 (UniProt Q9BUH6), the “dose-dependent thermal stabilisation call” value was inactive: 0.
With C4ORF27 (UniProt Q9NWY4), the “dose-dependent thermal stabilisation call” value was inactive: 0.
As for CARHSP1 (UniProt Q9Y2V2), the figure is inactive: 0.
Take CCDC75 (UniProt Q8N954): the “dose-dependent thermal stabilisation call” value was inactive: 0.
As to C3ORF37 (UniProt Q96FZ2), the “dose-dependent thermal stabilisation call” value was inactive: 0.
C6ORF129 (UniProt Q9P0B6): the “dose-dependent thermal stabilisation call” value is inactive: 0.
With CCPG1 (UniProt Q9ULG6) the figure was inactive: 0; with C2ORF76 (UniProt Q3KRA6), inactive: 0.
Consider CCDC109A (UniProt Q8NE86), for which the “dose-dependent thermal stabilisation call” value was inactive: 0.
Consider CCDC88B (UniProt A6NC98), for which the “dose-dependent thermal stabilisation call” value was inactive: 0.
As for C8ORF76 (UniProt Q96K31), the figure is inactive: 0; as for CCDC58 (UniProt Q4VC31), inactive: 0.
In the case of C9ORF114 (UniProt Q5T280), the “dose-dependent thermal stabilisation call” value is inactive: 0.
As for C6ORF125 (UniProt Q9BRT2), the figure is inactive: 0.
As to C9ORF167 (UniProt Q9NXH8), the “dose-dependent thermal stabilisation call” value was inactive: 0.
For the target C3 (UniProt P01024), the “dose-dependent thermal stabilisation call” value is inactive: 0.
As to CAMLG (UniProt P49069), the “dose-dependent thermal stabilisation call” value was inactive: 0.
As to CASP4 (UniProt P49662), the “dose-dependent thermal stabilisation call” value was inactive: 0.
C1ORF25 (UniProt Q7Z2T5): the “dose-dependent thermal stabilisation call” value was inactive: 0.
As for C5ORF22 (UniProt Q49AR2), the figure is inactive: 0.
